The test system of the assay is Lewis lung carcinoma i.m., BDF1 mice, T/C %. Nature of the assay: NCI In Vivo Anticancer Drug Screen. Data for tumor model Lewis Lung Carcinoma (intramuscular) in B6D2F1 (BDF1) mice. To be noted: vehicle: saline. The method, then:
The antitumor activity of compounds was measured in mice bearing transplantable tumors. Survival or tumor size were measured and the results are expressed as the measurement made in the treated group (T) divided by the measurement made in the vehicle treated control group (C). The tumor model used in this assay is Lewis Lung Carcinoma (intramuscular) in B6D2F1 (BDF1) mice

The list is a part of this screen's results and no random one: it gathers some chemical classes. Not every dose and run of a compound is shown. T/C: endpoint of the treated group in % of that of the vehicle group. Some entries show no survivor count and are marked so; the dose need not have been tolerated. Schedules are NCI's codes, taken here to give the interval after Q, in days (D) or hours (H), and the number of doses after X. Marks such as (2×) give the number of equal values in this list. Some entries hold several experiments; the values are given in rising order. Where survival is the endpoint, this PubChem deposit counts one and a half times the control or more as active, and values a quarter to a half above the control carry no call in these data; other NCI protocols may use other cut-offs.

Turning to `CN(CCCl)CCCl`, the T/C is 62 % of control [survivor count not shown] (2×) (T/C endpoint: mean tumor weight, dose: 0.03 mg/kg/injection, schedule: Q01DX009 (ip), evaluation day not shown, higher T/C = larger tumour); 100 % of control [survivor count not shown] (2×) (T/C endpoint: mean tumor weight, dose: 0.05 mg/kg/injection, schedule: Q01DX009 (ip), evaluation day not shown, higher T/C = larger tumour); 52 [survivor count not shown], 76 [survivor count not shown], 154 % of control [survivor count not shown] (T/C endpoint: mean tumor weight, dose: 0.06 mg/kg/injection, schedule: Q01DX011 (ip), evaluation day not shown, higher T/C = larger tumour); 44 % of control [survivor count not shown] (2×) (T/C endpoint: mean tumor weight, dose: 0.08 mg/kg/injection, schedule: Q01DX009 (ip), evaluation day not shown, higher T/C = larger tumour); 52 [survivor count not shown], 54 [survivor count not shown], 129 % of control [survivor count not shown] (T/C endpoint: mean tumor weight, dose: 0.13 mg/kg/injection, schedule: Q01DX011 (ip), evaluation day not shown, higher T/C = larger tumour); 69 % of control [survivor count not shown] (2×) (T/C endpoint: mean tumor weight, dose: 0.14 mg/kg/injection, schedule: Q01DX009 (ip), evaluation day not shown, higher T/C = larger tumour). The T/C by setting is: (T/C endpoint: mean tumor weight, dose: 0.24 mg/kg/injection, schedule: Q01DX009 (ip), evaluation day not shown, higher T/C = larger tumour) 49 % of control [survivor count not shown] (2×); (T/C endpoint: mean tumor weight, dose: 0.25 mg/kg/injection, schedule: Q01DX011 (ip), evaluation day not shown, higher T/C = larger tumour) 26 [survivor count not shown] and 86 % of control [survivor count not shown]; (T/C endpoint: mean tumor weight, dose: 0.5 mg/kg/injection, schedule: Q01DX011 (ip), evaluation day not shown, higher T/C = larger tumour) 45 % of control [survivor count not shown]; (T/C endpoint: median survival time, dose: 0.05 mg/kg/injection, schedule: Q01DX009 (ip), higher T/C = longer survival) 89 [survivor count not shown] and 91 % of control [survivor count not shown]; (T/C endpoint: median survival time, dose: 0.06 mg/kg/injection, schedule: Q01DX011 (ip), higher T/C = longer survival) 94 [survivor count not shown], 101 [survivor count not shown], 103 % of control [survivor count not shown]; (T/C endpoint: median survival time, dose: 0.08 mg/kg/injection, schedule: Q01DX009 (ip), higher T/C = longer survival) 97 [survivor count not shown] and 104 % of control [survivor count not shown]. For the same compound, the T/C reads like this: (T/C endpoint: median survival time, dose: 0.12 mg/kg/injection, schedule: Q01DX011 (ip), higher T/C = longer survival) 109 [survivor count not shown] and 121 % of control [survivor count not shown]; (T/C endpoint: median survival time, dose: 0.13 mg/kg/injection, schedule: Q01DX011 (ip), higher T/C = longer survival) 94 [survivor count not shown], 102 [survivor count not shown], 103 [survivor count not shown], 114 % of control [survivor count not shown]; (T/C endpoint: median survival time, dose: 0.14 mg/kg/injection, schedule: Q01DX009 (ip), higher T/C = longer survival) 117 [survivor count not shown] and 121 % of control [survivor count not shown]; (T/C endpoint: median survival time, dose: 0.24 mg/kg/injection, schedule: Q01DX009 (ip), higher T/C = longer survival) 97 [survivor count not shown] and 104 % of control [survivor count not shown]; (T/C endpoint: median survival time, dose: 0.25 mg/kg/injection, schedule: Q01DX011 (ip), higher T/C = longer survival) 100 [survivor count not shown], 110 [survivor count not shown], 118 [survivor count not shown] (2×), 148 % of control [survivor count not shown]; (T/C endpoint: median survival time, dose: 0.5 mg/kg/injection, schedule: Q01DX011 (ip), higher T/C = longer survival) 88 % of control [survivor count not shown].

For the origin of these results see PubChem BioAssay AID272 (DTP/NCI, 2004).
